Earlier results in patent publication US11452751B2, “Medication dispensing system” (priority 2015, dated 2022).

Settings: natural derived CBD

C=C(C)[C@@H]1CCC(C)=C[C@H]1c1c(O)cc(CCCCC)cc1O [CBD, Cannabidiol]
solubility in water: not readily soluble in water
